According to patent publication US4803208A, “Opiate agonists and antagonists” (Sloan-Kettering Institute For Cancer Research, priority 1985, dated 1989):

System: mice
Assay type: in vivo, mouse
Conditions: no pretreatment

Compound: CN1CC[C@]23c4c5ccc(O)c4O[C@H]2[C@@H](O)C=C[C@H]3[C@H]1C5.O=S(=O)(O)O [Morphine sulfate, morphine sulfate]
- Morphine sulfate ED50 value, control group: 3.7 mg/kg s.c.
